The target in the assay is PAI-1 (Homo sapiens, UniProt P05121). Nature of the assay: PAI-1 inhibitory activity using synthetic substrate S-2288. To be noted: read-out: PAI-1 inhibitory activity IC50. An excerpt:
PAI-1 inhibitory activity can be measured using a synthetic substrate S-2288 according to the methods described in International Publication WO04/011442 pamphlet, International Publication WO04/10996 pamphlet, JP-A-2004-250401, etc.

Sequences of proteins named here, by UniProt entry; tags and fusion partners are left off. Residues count along the entry.
UniProt P05121, 24-402 limits assumed: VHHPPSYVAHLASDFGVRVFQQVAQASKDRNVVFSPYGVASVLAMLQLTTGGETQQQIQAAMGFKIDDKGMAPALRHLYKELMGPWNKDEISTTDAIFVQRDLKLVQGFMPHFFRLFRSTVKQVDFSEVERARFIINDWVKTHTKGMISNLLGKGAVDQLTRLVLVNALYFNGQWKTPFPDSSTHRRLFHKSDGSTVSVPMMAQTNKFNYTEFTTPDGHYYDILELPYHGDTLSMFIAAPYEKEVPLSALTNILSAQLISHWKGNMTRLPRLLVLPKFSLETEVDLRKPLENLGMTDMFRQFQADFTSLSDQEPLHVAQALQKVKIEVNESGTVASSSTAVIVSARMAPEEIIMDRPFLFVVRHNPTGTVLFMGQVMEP

The structures given here were assigned with low confidence; some may be wrong.

As for `COc1ccc(-c2nc(-c3ccc4cc(OCCCCCC(C(=O)O)C(=O)O)ccc4c3)oc2-c2ccc(OC)cc2)cc1`, the IC50 turned out to be 360 nM.

For orientation: IC50 means the concentration that gives 50% inhibition.

These data come from patent US20090118314A1, “TUMOR SUPPRESSOR” (JAPAN AS REPRESENTED BY DIRECTOR GENERAL OF AGENCY CENTER, priority 2006, published 2009).
